Measurements as given in PubChem BioAssay AID651640 (Broad Institute, 2012).
The whole screen tested about 350,000 compounds, of which about 6,000 (1.7%) were called active. Inconclusive results, whose numbers are uncertain, are shown with a selection of clear calls. Cut-off read from the data, not from the text of the source: active = CPE inhibition above about 20% (passing the limit was not always enough); inconclusive = no clear call, values can overlap the other calls; tested in BHK-21 cells.

Test: protection of cells from dengue 2 killing – plate reader, single concentration, primary screen (AID 651640);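 note: 0% = median of neutral control wells and 100% = median of positive control wells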
Details: DENV2-infected cells, cytopathic effect rescue, at 9.99 µM, stronger effect = higher value

Structure (SMILES) | CPE inhibition
CC(C)NC(=O)Nc1ccc2c(c1)C(=O)N([C@@H](C)CO)C[C@@H](C)[C@H](CN(C)Cc1ccc(C(=O)O)cc1)OCCCC[C@@H](C)O2 | active: 21.5%
O=C1CCC/C=C\C[C@@H](CC(=O)N(CCO)Cc2ccccc2)C(=O)N2CCC[C@H]2CO1 | inconclusive: 43.6%
CCOc1ccc(S(=O)(=O)Nc2ccc(C(=O)N3CCCC3)cc2)cc1 | inconclusive: 20.5%
O=C(c1c[nH]c(C(=O)C(Cl)(Cl)Cl)c1)c1ccc(F)cc1Cl | inactive: -3.86%
O=C(CN1CCCC1)Nc1c(C(=O)C2CC2)oc2ccccc12 | inconclusive: 22.8%
O=C1NCCN/C1=C\C(=O)c1ccc(Cl)cc1 | inconclusive: 44.2%
Cc1cc(C)cc(NC(=O)Cn2cc(C=O)c3ccccc32)c1 | inconclusive: 23.8%
C[C@@H]1CN([C@H](C)CO)C(=O)CCCn2cc(nn2)CO[C@H]1CN(C)C(=O)NC1CCCC1 | inconclusive: 28.2%
C[C@H](CO)N1C[C@H](C)[C@H](CN(C)S(=O)(=O)c2ccc(Cl)cc2)OCCCC[C@H](C)Oc2ccc(NS(=O)(=O)c3ccc(Cl)cc3)cc2C1=O | inconclusive: 33.9%
C[C@H](O)C#Cc1cnc2c(c1)C(=O)N([C@H](C)CO)C[C@@H](C)[C@@H](CN(C)C(=O)CN1CCOCC1)O2 | inconclusive: 36.5%
CCC(=O)Nc1ccc2c(c1)C(=O)N(C)C[C@@H](OC)[C@@H](C)CN(C(=O)c1ccncc1)[C@H](C)CO2 | inactive: 2.83%
COc1ccccc1C#Cc1ccc([C@H]2[C@H](CO)N3CCCCN(C(=O)C4CCC4)C[C@@H]23)cc1 | inactive: -8.41%
CC(Oc1cccnc1[N+](=O)[O-])C(=O)Nc1ccc(Cl)cn1 (configuration not stated) | inconclusive: 21.1%
C[C@H](CO)N1C[C@H](C)[C@@H](CN(C)CC2CC2)Oc2ccc(NC(=O)C3CC3)cc2CC1=O | inactive: -0.873%
CCc1cccc(NS(=O)(=O)c2ccc3c(c2)n(C)c(=O)n3C)c1 | inactive: -0.409%
CC1CN(C(=O)COC(=O)c2ccccc2O)CC(C)O1 (configuration not stated) | inconclusive: 25.9%
CC=Cc1ccc2n(c1=O)C[C@@H]1[C@@H](CO)[C@H](C(=O)NCC3CC3)N(Cc3ccccn3)[C@H]21 (mixture of isomers) | inconclusive: 64.6%
O=C(NCc1ccccc1)[C@@H]1N[C@@H]2c3ccc(-c4ccccc4)c(=O)n3C[C@@H]2[C@H]1CO | inactive: -4.43%
CS(=O)(=O)N1CCC(C(=O)NCc2ccc(Cl)cc2)CC1 | inconclusive: 28.2%
O=C(NCc1ccccc1)[C@@H]1[C@@H](CO)[C@@H]2Cn3c(cccc3=O)[C@H]1N2Cc1ccccn1 | active: 40.3%
CNC[C@H]1Oc2ccc(NC(=O)Nc3c(C)noc3C)cc2C(=O)N([C@H](C)CO)C[C@@H]1C | inactive: -2.4%
COc1cc([N+](=O)[O-])ccc1NC(=O)COC(=O)C1=NN(c2ccccc2)C(=O)CC1 | inconclusive: 50.4%
c1ccc(-n2nnc(-c3nccs3)n2)cc1 | inconclusive: 20.7%
CCOc1ccc(NC(=O)CN2CCN(c3ccc(F)cc3)CC2)cc1S(=O)(=O)N1CCCC1 | inconclusive: 30.3%

By substructure: those above with four or more nitrogen atoms.
Structure (SMILES) | CPE inhibition
CC(C)NC(=O)Nc1ccc2c(c1)C(=O)N([C@@H](C)CO)C[C@@H](C)[C@H](CN(C)Cc1ccc(C(=O)O)cc1)OCCCC[C@@H](C)O2 | active: 21.5%
C[C@@H]1CN([C@H](C)CO)C(=O)CCCn2cc(nn2)CO[C@H]1CN(C)C(=O)NC1CCCC1 | inconclusive: 28.2%
C[C@H](O)C#Cc1cnc2c(c1)C(=O)N([C@H](C)CO)C[C@@H](C)[C@@H](CN(C)C(=O)CN1CCOCC1)O2 | inconclusive: 36.5%
CCC(=O)Nc1ccc2c(c1)C(=O)N(C)C[C@@H](OC)[C@@H](C)CN(C(=O)c1ccncc1)[C@H](C)CO2 | inactive: 2.83%
CC(Oc1cccnc1[N+](=O)[O-])C(=O)Nc1ccc(Cl)cn1 (configuration not stated) | inconclusive: 21.1%
CC=Cc1ccc2n(c1=O)C[C@@H]1[C@@H](CO)[C@H](C(=O)NCC3CC3)N(Cc3ccccn3)[C@H]21 (mixture of isomers) | inconclusive: 64.6%
O=C(NCc1ccccc1)[C@@H]1[C@@H](CO)[C@@H]2Cn3c(cccc3=O)[C@H]1N2Cc1ccccn1 | active: 40.3%
CNC[C@H]1Oc2ccc(NC(=O)Nc3c(C)noc3C)cc2C(=O)N([C@H](C)CO)C[C@@H]1C | inactive: -2.4%
COc1cc([N+](=O)[O-])ccc1NC(=O)COC(=O)C1=NN(c2ccccc2)C(=O)CC1 | inconclusive: 50.4%
c1ccc(-n2nnc(-c3nccs3)n2)cc1 | inconclusive: 20.7%
CCOc1ccc(NC(=O)CN2CCN(c3ccc(F)cc3)CC2)cc1S(=O)(=O)N1CCCC1 | inconclusive: 30.3%

By substructure: the compounds so far containing fluorine (2)
Structure (SMILES) | CPE inhibition
O=C(c1c[nH]c(C(=O)C(Cl)(Cl)Cl)c1)c1ccc(F)cc1Cl | inactive: -3.86%
CCOc1ccc(NC(=O)CN2CCN(c3ccc(F)cc3)CC2)cc1S(=O)(=O)N1CCCC1 | inconclusive: 30.3%

The results go on.

Structure (SMILES) | CPE inhibition
COCC(=O)Nc1ccc2c(c1)OC[C@@H](C)N(Cc1ccncc1)C[C@@H](C)[C@H](OC)CN(C)C2=O | inconclusive: 20.1%
Cc1ccc(C(=O)N2CCN(c3ccc(NC(=O)Cc4ccccc4)cc3)CC2)cc1 | inconclusive: 25.2%
C[C@H](CO)N1C[C@H](C)[C@@H](CN(C)Cc2ccc(C(=O)O)cc2)Oc2ccc(NC(=O)NC3CCCCC3)cc2C1=O | active: 44.9%
NC(=O)COc1ccc(NC(=O)CC23CC4CC(CC(C4)C2)C3)cc1 | inconclusive: 30%
Cn1cnc(S(=O)(=O)N[C@@H]2CC[C@@H](CC(=O)NCC3CCCCC3)O[C@H]2CO)c1 | inconclusive: 20.8%
COc1ccccc1Nc1ccc2c(O)cc(S(=O)(=O)O)cc2c1 | inconclusive: 34.2%
CCS(=O)(=O)N1CC2(CN(C(=O)CN3CCOCC3)[C@H](CO)c3c2c2ccc(OC)cc2n3C)C1 | inactive: -8.28%
COC(=O)C1CCCCN1C(=O)c1ccc2oc(C(C)C)nc2c1 (configuration not stated) | inconclusive: 23.5%
CC(C)C#Cc1ccc([C@H]2[C@@H](C#N)N(C(=O)c3ccccn3)[C@@H]2CO)cc1 | inconclusive: 24.5%
COc1ccc(S(=O)(=O)Nc2ccc3c(c2)C(=O)N([C@@H](C)CO)C[C@@H](C)[C@H](CN(C)S(=O)(=O)c2ccc(Cl)cc2)O3)cc1 | active: 84.6%
COc1ccc(Cl)c2sc(N3CCN(C(=O)c4ccco4)CC3)nc12 | active: 104%
O=C(Nc1cc(F)ccc1F)N[C@H]1CC[C@@H](CCn2cc(C3CC3)nn2)O[C@@H]1CO | inactive: -0.745%
O=[N+]([O-])c1cccc(C([O-])=C(C(=S)Nc2cccc3ccccc23)[n+]2ccccc2)c1 | inconclusive: 48.8%
C[C@H]1CN([C@@H](C)CO)C(=O)c2cc(-c3cccnc3)cnc2O[C@H]1CN(C)C(=O)NC1CCCC1 | inactive: 2.4%
C[C@@H]1CCCCO[C@@H](CN(C)C(=O)c2ccccc2)[C@@H](C)CN([C@@H](C)CO)C(=O)c2cc(NS(=O)(=O)c3ccc(Cl)cc3)ccc2O1 | active: 21.1%
CC(C)C1C(=O)N(Cc2cn(CC3CCCCC3)nn2)CCS(=O)(=O)N1Cc1ccc(-c2ccc(Cl)cc2)cc1 (configuration not stated) | inconclusive: 20.8%
CCOC(=O)/C=C/CN(C(=O)OC(C)(C)C)S(=O)(=O)N1CC=CC1 | inconclusive: 52.3%
C[C@@H]1CN([C@@H](C)CO)C(=O)CCCn2nncc2CO[C@H]1CN(C)C(=O)c1ccncc1 | inconclusive: 35.7%
Oc1cc2c(cc1O)C(c1ccccc1)CNCC2 (configuration not stated) | active: 52%
CCCCN(C(=O)c1ccc(-c2ccc([N+](=O)[O-])cc2)o1)c1c(N)n(CCCC)c(=O)[nH]c1=O | inconclusive: 41.2%
CCc1ccc(C(O)(C(C)C)C(CN2CCOCC2)c2ccccc2)cc1 (configuration not stated) | inactive: 2.51%
O=C(COC(=O)c1cc(S(=O)(=O)N2CCCCC2)ccc1N1CCOCC1)c1ccccc1Cl | inconclusive: 26.3%
Cc1noc(C)c1S(=O)(=O)N(C)C[C@H]1OCCCC[C@H](C)Oc2ccc(NC(=O)Cc3ccccc3)cc2C(=O)N([C@H](C)CO)C[C@H]1C | inactive: -8.15%
CCc1nnc(NC(=O)CSc2nnc(-c3ccc(NS(=O)(=O)c4ccccc4)cc3)o2)s1 | active: 25.8%

Structure (SMILES) | CPE inhibition
O=C(C[C@@H]1CC[C@@H]2[C@H](COC[C@H](O)CN2C(=O)c2ccccc2F)O1)NCc1ccccc1 | inconclusive: 35.3%
CCN1CCN(Cc2ccc(NC(=O)c3cccc(-c4ccc5nc(NC(=O)C6CC6)sc5n4)c3)cc2C(F)(F)F)CC1 | inconclusive: 33.2%
C[C@@H]1CN([C@H](C)CO)C(=O)c2cc(-c3ccccc3F)cnc2O[C@H]1CN(C)Cc1ccc(F)cc1 | active: 28.9%
CCCC#Cc1ccc([C@@H]2[C@@H](CO)N3CCCCN(C(=O)NC4CCCC4)C[C@@H]23)cc1 | inconclusive: 39.3%
CCOc1ccc(N(CC(=O)NCc2ccc(OC)cc2)S(C)(=O)=O)cc1 | inactive: 1.27%
CN(CC(=O)Nc1cccc(Cl)c1)C1=NS(=O)(=O)c2ccccc21 | inconclusive: 20.2%
Cn1c(CC(=O)Nc2ccccc2Cl)nnc1SCC(=O)Nc1nncs1 | inconclusive: 26.9%
O=C(Nc1ccccc1F)N1C[C@H]2[C@@H](c3ccccc31)[C@@H](CO)N2C(=O)c1ccc(F)cc1 | inactive: -8.38%
CC(C)C(=O)Nc1ccc(COc2ccccc2CN(Cc2ccccc2)C(=O)OC(C)(C)C)cc1 | inactive: -8.09%
CN(C)CC(=O)N1[C@H](CO)[C@H](c2ccc(C#CC3CCCCC3)cc2)[C@@H]1C#N | inconclusive: 35.2%
COc1cccc(-c2cn(CC[C@H]3CC[C@H](NC(=O)CC4CC4)[C@@H](CO)O3)nn2)c1 | inconclusive: 20.1%
COc1ccc(NC(=O)CSc2nnc3n2CCCCC3)cc1S(=O)(=O)N1CCOCC1 | inconclusive: 26.6%
O=C(CSc1cccc(C(F)(F)F)c1)NC(=O)c1ccccc1 | inconclusive: 20.2%
CCCNC(=O)N1C[C@@H]2N[C@H](C1)C2c1ccc(-c2cccc(F)c2)cc1 (some centres not stated) | inconclusive: 30.7%
COc1ccc(/C=C2\SC(N)=NC2=O)cc1Br | inconclusive: 36.2%
O=C(Nc1ccc(Cl)cc1)N1C[C@@H]2[C@H](c3ccccc31)[C@H](CO)N2C(=O)C1CC1 | inactive: -0.603%
CC1C(=O)N2CCCc3cc(S(=O)(=O)N4CCCCC4)cc1c32 (configuration not stated) | inconclusive: 22%
COc1ccc(COCC23N=C4SCc5ccccc5C(=O)N4[C@H](c4ccccc4O2)[C@H]3CO[Si](C)(C)C(C)(C)C)cc1 | active: 27.9%
CS(=O)(=O)N1CCN(CCN2C(=O)c3cccc4cccc(c34)C2=O)CC1 | inactive: -1.01%
Cc1ccc(CC(=O)c2ccc(Cl)cc2)cc1 | inconclusive: 31.2%
Cc1nnc(NC(=O)CSCc2c(C)noc2C)s1 | inconclusive: 59.1%
CC(C)Oc1cc(F)ccc1-c1cc(C(=O)Nc2cccc(C(F)(F)F)c2)[nH]n1 | inconclusive: 25.3%
O=C(c1ccccc1)N1CC[C@@H]2[C@H]1c1cc(C#CC3CCCCC3)ccc1N[C@@H]2CO | active: 52.2%
COc1cccc(/C=C2\SC(=S)N(c3cccnc3)C2=O)c1OC | inconclusive: 23.3%
